Test [1] deals with human ISD11 (expressed as GST-ISD11 from pZM96, GST removed with thrombin) (human) (UniProt Q9HD34). The test is described as follows: affinity purification with mass spectrometry; GST-ISD11 expressed in E. coli, Glutathione Sepharose, thrombin cleavage, SEC on 16/600 Superdex 75; co-purified ca. 45 kDa protein identified by MS/MS.
Test [2] has as its target His-tagged ISD11 (pZM6), co-expressed with IscS (human) (UniProt Q9HD34). In words: affinity purification with mass spectrometry; untagged IscS (pSL219) co-expressed with His-ISD11 (pZM6) in E. coli CL100 ΔiscS, co-purified; MALDI-TOF MS from 15% SDS-PAGE.

The chains behind the UniProt entries cited, without tags or fusion partners. Where a name states a change or a piece, a line headed by the entry shows the natural chain unless it says otherwise. A line that says so, or that is headed by a name, gives the form on record, which may keep a tag or linker.
UniProt Q9HD34: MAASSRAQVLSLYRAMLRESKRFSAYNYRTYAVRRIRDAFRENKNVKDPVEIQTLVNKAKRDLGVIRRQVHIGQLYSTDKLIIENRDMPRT
human ISD11 (expressed as GST-ISD11 from pZM96, GST removed with thrombin) (Q9HD34, form named): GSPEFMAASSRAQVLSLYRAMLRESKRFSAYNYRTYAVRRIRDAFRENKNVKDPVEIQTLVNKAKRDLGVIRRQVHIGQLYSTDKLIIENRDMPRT
UniProt P0A6B7: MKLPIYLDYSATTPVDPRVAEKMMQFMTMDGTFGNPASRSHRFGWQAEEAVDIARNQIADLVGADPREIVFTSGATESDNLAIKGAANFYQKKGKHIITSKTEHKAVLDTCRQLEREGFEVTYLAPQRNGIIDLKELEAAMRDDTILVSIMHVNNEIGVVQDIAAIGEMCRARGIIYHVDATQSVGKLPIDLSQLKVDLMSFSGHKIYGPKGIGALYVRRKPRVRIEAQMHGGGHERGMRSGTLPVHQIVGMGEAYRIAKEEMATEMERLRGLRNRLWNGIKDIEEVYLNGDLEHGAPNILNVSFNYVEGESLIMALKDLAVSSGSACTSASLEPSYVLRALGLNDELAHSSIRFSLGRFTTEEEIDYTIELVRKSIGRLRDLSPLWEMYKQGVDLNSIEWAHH

No constants are given. Whether binding was seen depends on the method and setting. Binding seen in cells or lysates may run through a third protein. These calls come from enrichment with a bait or labelling near it, and not all partners need be listed.

The text below walks through data of paper PMC4948766.

On to “bacterial IscS, endogenous in the E. coli expression host (from UniProt P0A6B7 1-404) (enzyme)”, for which the binding entry in test [1] was “binds”.

In the case of “untagged IscS (pSL219), co-expressed with His-ISD11 (from UniProt P0A6B7 1-404) (enzyme)”, in test [2], the binding entry is “binds”.
